Experimental data taken from PubChem BioAssay AID540276 (National Center for Advancing Translational Sciences (NCATS), 2011).
Hit rate of the full screen: of about 300,000 compounds, about 5,400 (1.8%) were called active. Inconclusive means that the source gave no clear call. Such entries were picked first, then a sample of the others. Calls follow the shape of the full dose curve; tested in HEK293 cells. Potencies beside an inconclusive call are fits to weak or partial responses and may not hold up.

Test: qHTS for inhibitors of binding or entry into cells for Marburg Virus
Details: Marburg virus pseudotyped entry inhibition, cell reporter; activity change, negative = inhibition: at 37.8 µM (top of the series) unless noted
% is scaled to controls: 0 for no effect and ±100 for the full control effect; potency is read from the fitted curve at half-maximal effect.

Q: For `CCOc1ccc(NC(=O)NCCCN2CCN(c3ccc(OC)cc3)CC2)cc1`, which Potency is on record?
A: inconclusive: 5.62 µM [activator, single point]

Q: Which “activity change, negative = inhibition” value does the source give for `CCN(CC)C(=O)c1cnn(-c2ccccc2)c1NC(=O)c1ccccc1F` here?
A: inactive: -1.41%

Q: With `Cc1ccc(C(=O)NC=C(Cl)Cl)cc1` as the compound, how does the Potency read?
A: inconclusive: 0.447 µM [inhibitor, partial curve, poor fit]

Q: Which “activity change, negative = inhibition” value does the source give for `Cc1c(CCC(=O)NCCc2ccccc2F)c(=O)oc2cc(O)ccc12` here?
A: inactive: 15.7% [at 46.1 µM]

Q: Which Potency does the source give for `Cc1ccsc1C(=O)C1CCCN(Cc2cnc(N3CCCC3)s2)C1` (stereo unspecified) here?
A: inconclusive: 35.5 µM [inhibitor, single point]

Q: With `COC(=O)CCc1c(C)c(C#N)c2nc3ccccc3n2c1N1CCCC1` as the compound, how does the “activity change, negative = inhibition” value read?
A: inactive: 0.92%

Q: Which Potency does the source give for `COC(=O)c1ccc2cc(OC)cc([N+](=O)[O-])c2n1` here?
A: inconclusive: 0.562 µM [activator, partial curve, poor fit]

Q: Which Potency does the source give for `C[C@@H]1CC2OC(=O)[C@@]3(C)C(=O)CC[C@@](C)(C23)[C@@]1(O)CCc1ccoc1` (stereo partly specified) here?
A: inconclusive: 20 µM [inhibitor, single point]

Q: For `c1ccc(CCNc2ccnc3cc4ccccc4cc23)cc1`, which Potency is on record?
A: inconclusive: 7.08 µM [inhibitor, full curve, poor fit]

Q: Which Potency does the source give for `COc1ccc(C2c3ccc4ccccc4c3Oc3ncn(CCN(C)C)c(=N)c32)cc1` (stereo unspecified) here?
A: active: 8.91 µM

Q: Which “activity change, negative = inhibition” value does the source give for `C=CCNC(=S)NNC(=O)c1ccco1` here?
A: inactive: -2.92% [at 46.1 µM]

Q: With `CC(C)(C)NC(=O)C(c1ccc(F)cc1)N(Cc1cccs1)C(=O)c1ccc(CN2CCOCC2)o1` (stereo unspecified) as the compound, how does the Potency read?
A: active: 2.82 µM

Q: For `CCCCCNCC(=O)Nc1cccc(C(=O)Nc2cccc(C(F)(F)F)c2)c1`, which Potency is on record?
A: inconclusive: 15.8 µM [inhibitor, single point]

Q: With `CC(=O)Nc1ccc(NC(=O)c2ccco2)cc1` as the compound, how does the “activity change, negative = inhibition” value read?
A: inactive: 18.5%

Q: With `O=C(CSc1nnc(-c2ccccc2Cl)o1)N1CCCC1` as the compound, how does the Potency read?
A: inconclusive: 2.24 µM [inhibitor, full curve, poor fit]

Q: Which “activity change, negative = inhibition” value does the source give for `CSc1ccccc1NC(=O)c1cnccn1` here?
A: inactive: 6.23%

Q: With `Cc1c(C(=O)N/N=C/c2c(O)ccc3ccccc23)nnn1-c1nonc1N` as the compound, how does the Potency read?
A: inconclusive: 3.98 µM [inhibitor, single point]

Q: With `CCCOc1ccc(C(=O)NNC(=S)NC(=O)CC)cc1` as the compound, how does the Potency read?
A: inconclusive: 29.1 µM [inhibitor, single point]

Q: With `NNc1nc2c(-c3ccc(F)cc3)nnn2c2ccccc12` as the compound, how does the “activity change, negative = inhibition” value read?
A: inactive: 12.6% [at 46.1 µM]

Q: For `Cn1c(=O)c2c(nc(CN3CCN(c4cccc(Cl)c4)CC3)n2CCc2ccccc2)n(C)c1=O`, which Potency is on record?
A: inconclusive: 20 µM [inhibitor, single point]

Q: Which Potency does the source give for `COc1ccccc1NC(=O)COC(=O)CCn1c(C)csc1=O` here?
A: inconclusive: 15.8 µM [activator, partial curve, poor fit]
